# Measured values reported in PubChem BioAssay AID1347076 (National Center for Advancing Translational Sciences (NCATS), 2019).
# Screen size: about 400,000 compounds; about 13,000 (3.2%) were called active. This list was built around the results that the source calls inconclusive (neither active nor inactive); the mix of calls is not that of the screen. Calls follow the shape of the dose curve; as a rule, active = well fitted cell-killing curve with a large enough effect; inconclusive = small, poorly fitted or top-dose-only effect, or effect the other way; inactive = flat fitted curve, though single readings scatter. Potencies beside an inconclusive call are fits to weak or partial responses and may not hold up.
# Assay: qHTS assay for MDR1-selective chemotherapeutics: Primary screen using the drug-selected MDR subline cells KB-V1; also: nearly all actives have a fitted effect of over 60% in size
# Settings: KB-V1 MDR cells viability, CellTiter-Glo, 72 h; activity change, negative = cytotoxicity: at 46.1 µM (top of the series)
# How it was run: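 KB-V1 cells (P-gp-expressing MDR subline of KB-3-1) in phenol-red-free DMEM with 10% FBS were exposed to library compounds over a concentration series for 72 h at 37 degrees C. Viability read by CellTiter-Glo luminescence; concentration-effect curves fitted after normalization.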
# % is scaled to controls: 0 for no effect and ±100 for the full control effect; potency is read from the fitted curve at half-maximal effect.
Structure (SMILES),Potency,"activity change, negative = cytotoxicity"
COc1ccc(/C=C\C(=O)c2c(O)ccc3c(C)cc(=O)oc23)cc1,"inconclusive: 29.1 µM [cytotoxic, single point]",–
O=C(COC(=O)c1ccc(O)cc1O)Nc1cccc2ccccc12,"inconclusive: 0.0291 µM [rising, full curve]",–
CCn1cc(/C=C(\NC(=O)c2ccc(C)cc2)C(=O)NCCN2CCOCC2)c2ccccc21,"inconclusive: 10.3 µM [cytotoxic, partial curve, poor fit]",–
Cc1ccc(C(=O)N(C)Cc2ccccc2)cc1S(=O)(=O)N1CCOCC1,"inconclusive: 4.11 µM [cytotoxic, full curve, poor fit]",–
O=C(C1CCCN(S(=O)(=O)c2cccc3nonc23)C1)N1CCN(c2ccccc2)CC1 (stereo unspecified),"inconclusive: 4.61 µM [cytotoxic, partial curve]",–
CCOc1ccc(S(=O)(=O)Nc2cc3c(C(=O)OCc4ccccc4)c(C)oc3c3ccccc23)cc1,–,inconclusive: -32.7%
CCCc1nc2cc(Cl)c([N+](=O)[O-])cc2o1,"inconclusive: 25.9 µM [rising, partial curve, poor fit]",–
Cc1ccn2cc(-c3cccc(S(=O)(=O)N4CC(C)OC(C)C4)c3)nc2c1 (stereo unspecified),–,inactive: -6.18%
OC(c1cccc(Cl)c1)c1ncc(-c2ccc3ccccc3c2)[nH]1 (stereo unspecified),–,inactive: 0.41%
O=C(Cc1ccccc1Cl)Nc1ccc(S(=O)(=O)N2CCOCC2)cc1,"inconclusive: 29.1 µM [cytotoxic, single point]",–
CC(C)(C)NC(=O)NC(=O)CN1CCN(Cc2ccccc2)CC1,–,inactive: -6.41%
Cc1cc(C)nc(NCC(O)CNc2ccccc2Cl)n1 (stereo unspecified),"inconclusive: 29.1 µM [cytotoxic, single point]",–
O=Cc1cc2ccccc2nc1SCc1ccc(Cl)cc1,"inconclusive: 1.84 µM [cytotoxic, partial curve, poor fit]",–
COc1ccc2cc(CN(C)C(=O)CN3C(=O)NC4(CCCC4)C3=O)ccc2c1,"inconclusive: 18.4 µM [cytotoxic, single point]",–
Cc1cc(C)c(-c2n[nH]c3c2C(c2ccccc2F)N(CCO)C3=O)c(O)c1 (stereo unspecified),"inconclusive: 0.0052 µM [rising, full curve, poor fit]",–
C/C(=N\NC(N)=S)c1cccnc1,"inconclusive: 29.1 µM [rising, single point]",–
CC(=O)c1c(C)n(-c2cccc(Cl)c2)c2ccc(OC(=O)c3ccccc3)cc12,–,inactive: -7.93%
Cc1cccc(N2CCN(S(=O)(=O)c3ccc4c(c3)CCC(=O)N4)CC2C)c1 (stereo unspecified),active: 14.6 µM,–
Cc1ccc(S(=O)(=O)N2CCCC2C(=O)Nc2nc3c(s2)CCCC3)cc1 (stereo unspecified),–,inactive: 0%
COc1cccc(C(NC(C)=O)c2nc(-c3cc4ccccc4o3)cs2)c1 (stereo unspecified),"inconclusive: 20.6 µM [cytotoxic, single point]",–
COc1ccccc1CNCC(O)Cn1c2ccccc2c2ccccc21 (stereo unspecified),"inconclusive: 18.4 µM [cytotoxic, single point]",–
Cc1ccc(-n2nnnc2SCC(=O)NCCC2=CCCCC2)c(C)c1,active: 20.6 µM,–

Structure (SMILES),Potency,"activity change, negative = cytotoxicity"
Cc1ccc(-c2csc3nc(C)n(N)c(=O)c23)o1,"inconclusive: 29.1 µM [cytotoxic, single point]",–
COC(=O)c1cc(OC)c(OC)cc1NCC(=O)Nc1cccc(C(F)(F)F)c1,"inconclusive: 8.2 µM [cytotoxic, partial curve]",–
O=c1c2cccc3c2c(nn1CN1CCOCC1)-c1ccccc1-3,active: 1.64 µM,–
CCOc1cc2[nH]c(=O)n(CCC(=O)N3CCN(c4ccccc4)CC3)c(=O)c2cc1OCC,"inconclusive: 29.1 µM [rising, single point]",–
CC(C)(C)CC(=O)Nc1ccc(Nc2ccccc2)cc1,–,inactive: 5.52%
Cc1ccc(S(=O)(=O)Oc2ccccc2-c2ccccc2)cc1,"inconclusive: 18.4 µM [cytotoxic, single point]",–
CC1CCc2nc(NC(=O)c3cc(C(C)(C)C)nn3C)sc2C1 (stereo unspecified),"inconclusive: 8.2 µM [cytotoxic, partial curve]",–
O=C(c1ccc2c(c1)[nH]c(=S)n1c3ccccc3nc21)N1CCN(c2cccc(Cl)c2)CC1,"inconclusive: 9.2 µM [cytotoxic, partial curve]",–
O=C1c2ccccc2C(=O)N1CSc1nnc(Nc2ccccc2)s1,–,inactive: -0.193%
CCOC(=O)CNc1ncc(C(F)(F)F)cc1Cl,"inconclusive: 18.4 µM [rising, single point]",–
CCOC(=O)c1cc2c(=O)n3ccccc3nc2n(C(C)C)c1=NC(=O)c1ccco1,"inconclusive: 5.8 µM [cytotoxic, full curve]",–
O=C(CSc1ccc2ccccc2c1Br)Nc1cccc(S(=O)(=O)NC2=NCCCCC2)c1,–,inactive: -2.19%
CC(C)C[C@H](NC(=O)c1[nH]cnc1C(=O)N[C@@H](Cc1ccccc1)C(=O)OCc1ccccc1)C(=O)OC(C)(C)C,"inconclusive: 29.1 µM [cytotoxic, single point]",–
O=S1(=O)CCOC[C@H](Cc2ccccc2)N1Cc1cccc(F)c1,"inconclusive: 20.6 µM [rising, single point]",–
COc1ccccc1NC(=O)CSc1nnc(C)n1CCc1ccccc1,"inconclusive: 18.4 µM [cytotoxic, partial curve, poor fit]",–
Cc1cc(-c2n[nH]c(=S)n2/N=C/c2ccc(Br)s2)n[nH]1,"inconclusive: 9.2 µM [cytotoxic, partial curve, poor fit]",–
CC(=O)OCC=C1CCC2C3CCC4=CC(=O)CCC4(C)C3C(O)CC12C (stereo unspecified),"inconclusive: 25.9 µM [cytotoxic, single point]",–
O=S(=O)(N/N=C/c1cn(Cc2ccccc2)c2ccccc12)c1ccccc1,active: 20.6 µM,–
CN(C)CCCNC(=O)/C(=C\C=C\c1ccccc1)NC(=O)c1ccc([N+](=O)[O-])cc1,–,inconclusive: 7.13%
CN(C)CCCNC(=O)c1cc(Br)ccc1O,–,inactive: 11.7%
CC(C)Oc1ccc(C(=O)NCCNC(=O)c2ccco2)cc1,"inconclusive: 20.6 µM [cytotoxic, single point]",–
COc1ccc2nc(N3CCCC(C(=O)NCCCN4CCN(C)CC4)C3)sc2c1 (stereo unspecified),–,inactive: 6.63%

# Already shown: entries from further up.
Structure (SMILES),Potency,"activity change, negative = cytotoxicity"
Cc1ccn2cc(-c3cccc(S(=O)(=O)N4CC(C)OC(C)C4)c3)nc2c1 (stereo unspecified),–,inactive: -6.18%
OC(c1cccc(Cl)c1)c1ncc(-c2ccc3ccccc3c2)[nH]1 (stereo unspecified),–,inactive: 0.41%

# Complete entries from above.
# OC(c1cccc(Cl)c1)c1ncc(-c2ccc3ccccc3c2)[nH]1 (stereo unspecified) is entered as activity change, negative = cytotoxicity: inactive: 0.41%
# CN(C)CCCNC(=O)c1cc(Br)ccc1O is entered as activity change, negative = cytotoxicity: inactive: 11.7%

# The results go on.

Structure (SMILES),Potency,"activity change, negative = cytotoxicity"
CCOc1ccc(OCC)c(NS(=O)(=O)c2ccc3c(c2)n(C)c(=O)c(=O)n3C)c1,"inconclusive: 25.9 µM [cytotoxic, single point]",–
Cc1cccc(CN2Cc3cccc4c3[C@H](C=CC4)CC2=S)c1,"inconclusive: 29.1 µM [cytotoxic, single point]",–
Cc1ccc(N(Cc2ccc([N+](=O)[O-])cc2)C(=O)c2ccco2)cc1,"inconclusive: 14.6 µM [cytotoxic, single point]",–
CC(C)(C)c1ccc(-c2nnc(NC(=O)c3ccccc3)s2)cc1,–,inactive: -1.08%
CCCSc1oc(-c2ccco2)nc1S(=O)(=O)c1ccc(C)cc1,"inconclusive: 20.6 µM [cytotoxic, single point]",–
COc1cccc(NC(=O)CN(C)C(=O)C(Sc2ccccc2)c2ccccc2)c1 (stereo unspecified),"inconclusive: 23.1 µM [cytotoxic, partial curve, poor fit]",–
O=C(Nc1ccccc1-c1ccccc1)C1CCCN(c2ncccn2)C1 (stereo unspecified),active: 20.6 µM,–
O=[N+]([O-])c1cc([N+](=O)[O-])c2cc3ccccc3nc2c1,–,inactive: 2.45%
O=C(Nc1cn(-c2ccccc2)nc1-c1ccc(F)cc1)c1ccccc1,active: 16.4 µM,–
CCc1noc(C)c1C(=O)Nc1ccc(-c2nnc3n2CCCCC3)cc1,"inconclusive: 14.6 µM [rising, partial curve, poor fit]",–
O=S(=O)(NCCC1=CCCCC1)c1cccc(Br)c1,"inconclusive: 18.4 µM [cytotoxic, single point]",–
COc1ccc(-n2c(SCC(=O)Nc3ccc(Br)cc3)nc(O)cc2=O)cc1,"inconclusive: 29.1 µM [rising, single point]",–
CC(=O)NC(c1ccco1)c1ccc2cccnc2c1O (stereo unspecified),"inconclusive: 2.06 µM [cytotoxic, full curve, poor fit]",–
CC(=O)c1c(C)[nH]c(C(=O)OCC(=O)NCC(C)C)c1C,"inconclusive: 23.1 µM [cytotoxic, single point]",–
Cc1ccccc1-c1nnn(CC(=O)c2ccc(S(=O)(=O)N3CCCC3)cc2)n1,"inconclusive: 20.6 µM [cytotoxic, partial curve]",–
Cc1ccc(C(=O)CC2(O)C(=O)N(CCc3ccccc3)c3ccc(Br)cc32)cc1 (stereo unspecified),"inconclusive: 18.4 µM [cytotoxic, single point]",–
Cc1ccccc1N=C1c2cc([N+](=O)[O-])ccc2-c2ncccc21,"inconclusive: 16.4 µM [cytotoxic, single point]",–
CC(=O)c1ccc(NC(=O)CN2CCC(C(=O)c3ccc(F)cc3)CC2)cc1,"inconclusive: 11.6 µM [cytotoxic, single point]",–
CCc1c(C)sc(NC(=O)/C=C/c2ccc3c(c2)OCO3)c1C(=O)OC,"inconclusive: 18.4 µM [cytotoxic, partial curve, poor fit]",–
COc1cc(C)ccc1OCc1cc(C(=O)N(Cc2c(C)nn(C)c2C)C2CC2)no1,"inconclusive: 23.1 µM [cytotoxic, partial curve, poor fit]",–
CCOC(=O)C1C(=O)CC(C)(O)C(C(=O)OCC)C1c1ccc([N+](=O)[O-])cc1 (stereo unspecified),"inconclusive: 13 µM [cytotoxic, partial curve]",–
Cc1nc(-c2ccccn2)nc(SCC(=O)c2ccccc2)c1Cl,"inconclusive: 11.6 µM [cytotoxic, partial curve]",–
